Test results reported in publication PMC6867699.
These are yes or no findings as the source states them, for the method shown. In cells and extracts the contact can be indirect. Some binding calls cover weakened binding; strength is not graded here.

Protein sequences, listed by entry. Tags and fused reporters are not part of them.
UniProt P40763: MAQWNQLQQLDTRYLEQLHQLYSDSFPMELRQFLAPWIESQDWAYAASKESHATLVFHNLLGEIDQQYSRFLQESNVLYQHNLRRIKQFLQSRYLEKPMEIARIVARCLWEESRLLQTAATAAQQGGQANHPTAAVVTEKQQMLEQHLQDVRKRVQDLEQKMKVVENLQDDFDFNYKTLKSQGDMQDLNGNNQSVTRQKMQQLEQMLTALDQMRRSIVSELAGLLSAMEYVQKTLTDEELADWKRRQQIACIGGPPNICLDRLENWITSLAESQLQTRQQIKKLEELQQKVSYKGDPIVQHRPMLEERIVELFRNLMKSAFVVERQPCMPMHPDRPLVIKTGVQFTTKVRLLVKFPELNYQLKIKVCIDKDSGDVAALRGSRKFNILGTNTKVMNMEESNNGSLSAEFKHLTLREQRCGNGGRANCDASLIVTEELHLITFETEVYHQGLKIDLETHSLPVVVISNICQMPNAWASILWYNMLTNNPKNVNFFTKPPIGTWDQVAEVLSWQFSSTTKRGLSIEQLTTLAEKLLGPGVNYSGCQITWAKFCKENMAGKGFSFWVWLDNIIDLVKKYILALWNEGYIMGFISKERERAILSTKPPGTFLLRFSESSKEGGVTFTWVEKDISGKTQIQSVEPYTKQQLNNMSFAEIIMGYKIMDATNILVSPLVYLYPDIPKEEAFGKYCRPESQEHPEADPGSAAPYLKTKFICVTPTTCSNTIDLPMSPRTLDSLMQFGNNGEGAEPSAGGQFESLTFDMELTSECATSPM

Molecular target: signal transducer and activator of transcription 3 (STAT3) (human (endogenous in SKBR3)) (UniProt P40763)
Assay: co-IP; SKBR3 cell line, nucleus; EGFR and STAT3 were immunoprecipitated and western blot performed for HER2

Substance: Human epidermal growth factor receptor 2 (HER2) (from UniProt P04626 23-1255)
- binding: binds
